PubChem BioAssay AID1259308, NCATS – 2017
This is one part, drawn at random, of about 59,000 deposited reagents. Over the whole deposit, about 1,510 (2.6%) are marked active. 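Calls use total luciferase alone and ignore viability, so some active siRNAs may act by altering cell number.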 Entries without a mark were called inactive. Reagents against one gene are numbered here. Further read-outs or replicates are left out here.

- Aim: 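Genes whose loss raises luciferase production in HEK293 cells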 (primary screen)
- Cells: human HEK293 embryonic kidney cells stably expressing firefly luciferase (HEK-CMV-Luc2-Hygro)
- Knock-down reagent: single siRNA against human genes, 0.8 pmol siRNA per well
- Time to read-out: 72 h
- Read-out: 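Reporter luminescence and viable-cell signal on separate replicate plates, given as percent of non-targeting control and median/MAD z-scores, plus per-cell luciferase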
- Direction: total luciferase, z-score and total luciferase, % of control: higher = more reporter protein produced; luciferase per cell, z-score: higher = more reporter output per viable cell
- Hit rule: 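An siRNA counts as active if its total luciferase robust z-score exceeds 3; genes with two or more such siRNAs out of three were retested with fresh siRNAs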
- Meaning of the calls: active = raised luciferase; inactive = no rise

Target gene	siRNA no.	total luciferase, z-score	total luciferase, % of control	luciferase per cell, z-score
RNF148	1	-1.34	55.3	-1.21
RNF148	2	-1.21	57.8	-1.74
RNF148	3	-1.18	58.3	-1.23
DHX16	1	-0.722	67.5	-0.685
DHX16	2	1.03	102	1.8
DHX16	3	0.134	84.5	-0.721
GARIN5B	1	1.8	118	1.89
GARIN5B	2	1.03	102	1.22
GARIN5B	3	-0.228	77.4	-0.0466
ALG1	1	0.972	101	1.31
ALG1	2	-0.699	68	-0.797
ALG1	3	-0.0136	81.6	0.0553
CPAMD8P1	1	1.56	113	2.06
CPAMD8P1	2	-0.152	78.9	0.0616
CPAMD8P1	3	-0.893	64.1	-0.747
COL19A1	1	-1.11	59.7	-1.24
COL19A1	2	1.37	109	0.395
COL19A1	3	-0.554	70.9	-0.353
ABHD8	1	-2.32	35.8	-3.59
ABHD8	2	-0.609	69.8	-0.846
ABHD8	3	0.938	101	0.614
HCCAT5	1	-0.99	62.2	-0.0502
HCCAT5	2	-0.406	73.8	0.0449
HCCAT5	3	0.315	88.1	0.897
ITSN1	1	-0.401	73.9	-0.689
ITSN1	2	0.622	94.3	0.00395
ITSN1	3	-1.15	58.9	-1.54
MARCKSL1	1	2.41	130	1.42
MARCKSL1	2	1.17	105	0.249
MARCKSL1	3	-0.763	66.7	0.612
RPLP1	1	-2.01	41.8	-0.642
RPLP1	2	-1.02	61.6	1.9
RPLP1	3	-2.16	38.9	-0.957
OR51E2	1	-0.858	64.8	-1.23
OR51E2	2	1.03	102	0.954
OR51E2	3	0.164	85.2	-0.251
KIF15	1	-0.299	75.9	-0.0931
KIF15	2	0.567	93.2	0.519
KIF15	3	-1.22	57.5	-0.00331
XRCC5	1	-0.475	72.4	-0.65
XRCC5	2	-0.622	69.5	-0.0483
XRCC5	3	-1.03	61.4	-0.548
NDUFB9	1	1.2	106	1.22
NDUFB9	2	-0.172	78.5	-0.0949
NDUFB9	3	-0.216	77.6	-0.515
RBP4	1	-0.482	72.3	-0.573
RBP4	2	1.25	107	0.753
RBP4	3	1.18	105	1.94
TAGLN	1	0.587	93.6	0.217
TAGLN	2	0.829	98.4	1.79
TAGLN	3	3.88 (active)	159	3.08
TMEM11	1	-1.77	46.7	-1.36
TMEM11	2	0.124	84.4	0.197
TMEM11	3	0.958	101	0.585
DCUN1D2	1	0.347	88.8	0.611
DCUN1D2	2	-0.527	71.4	-0.557
DCUN1D2	3	-0.232	77.3	0.568

Ordered by “luciferase per cell, z-score” (low to high): 8 of the entries above
Target gene	siRNA no.	total luciferase, z-score	total luciferase, % of control	luciferase per cell, z-score
ITSN1	3	-1.15	58.9	-1.54
OR51E2	1	-0.858	64.8	-1.23
RPLP1	3	-2.16	38.9	-0.957
RPLP1	1	-2.01	41.8	-0.642
MARCKSL1	2	1.17	105	0.249
MARCKSL1	3	-0.763	66.7	0.612
MARCKSL1	1	2.41	130	1.42
RPLP1	2	-1.02	61.6	1.9
